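The test systems are human melanoma cell lines, treated with a pair of drugs for 72 h and then stained and imaged. Values are the share of nuclei positive for cleaved PARP as a percentage of the same share in the DMSO control: 100 is the control level, higher means more apoptosis. Concentrations were fixed for each drug; these are the higher of two levels. No replicate spread is given; individual values may be noisy. Basal and induced levels differ widely between cell lines.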 This is part of the screen, not chosen by result. A dash means that no value is listed here.

Every entry is a combination with pioglitazone at 10 µM: CCc1ccc(CCOc2ccc(CC3SC(=O)NC3=O)cc2)nc1 (centres unmarked)

Compounds and concentrations:
SNS-314: O=C(Nc1cccc(Cl)c1)Nc1ncc(CCNc2ncnc3ccsc23)s1 at 0.004 µM
NVP-TAE684: COc1cc(N2CCC(N3CCN(C)CC3)CC2)ccc1Nc1ncc(Cl)c(Nc2ccccc2S(=O)(=O)C(C)C)n1 at 0.4 µM
bexarotene: C=C(c1ccc(C(=O)O)cc1)c1cc2c(cc1C)C(C)(C)CCC2(C)C at 10 µM
PD173074: CCN(CC)CCCCNc1ncc2cc(-c3cc(OC)cc(OC)c3)c(NC(=O)NC(C)(C)C)nc2n1 at 0.5 µM
STA-4783: CN(NC(=O)CC(=O)NN(C)C(=S)c1ccccc1)C(=S)c1ccccc1 at 0.03 µM
GSK650394: O=C(O)c1ccc(-c2c[nH]c3ncc(-c4ccccc4)cc23)cc1C1CCCC1 at 0.8 µM
temozolomide: Cn1nnc2c(C(N)=O)ncn2c1=O at 10 µM
ruxolitinib: N#CC[C@H](C1CCCC1)n1cc(-c2ncnc3[nH]ccc23)cn1 at 5 µM
decitabine: Nc1ncn([C@H]2C[C@H](O)[C@@H](CO)O2)c(=O)n1 at 0.5 µM
tamatinib: COc1cc(Nc2ncc(F)c(Nc3ccc4c(n3)NC(=O)C(C)(C)O4)n2)cc(OC)c1OC at 2 µM
etoposide: COc1cc([C@@H]2c3cc4c(cc3[C@@H](O[C@@H]3O[C@@H]5CO[C@@H](C)O[C@H]5[C@H](O)[C@H]3O)[C@H]3COC(=O)[C@H]23)OCO4)cc(OC)c1O at 0.1 µM
indole-3-carbinol: OCc1c[nH]c2ccccc12 at 4 µM
nilotinib: Cc1cn(-c2cc(NC(=O)c3ccc(C)c(Nc4nccc(-c5cccnc5)n4)c3)cc(C(F)(F)F)c2)cn1 at 1 µM
fingolimod: CCCCCCCCc1ccc(CCC(N)(CO)CO)cc1 at 10 µM
docetaxel: CC(=O)O[C@@]12CO[C@@H]1C[C@H](O)[C@@]1(C)C(=O)[C@H](O)C3=C(C)[C@@H](OC(=O)[C@H](O)[C@@H](NC(=O)OC(C)(C)C)c4ccccc4)C[C@@](O)([C@@H](OC(=O)c4ccccc4)[C@H]21)C3(C)C at 0.0005 µM
vatalanib: Clc1ccc(Nc2nnc(Cc3ccncc3)c3ccccc23)cc1 at 10 µM
crizotinib: C[C@@H](Oc1cc(-c2cnn(C3CCNCC3)c2)cnc1N)c1c(Cl)ccc(F)c1Cl at 1 µM
BI-78D3: O=c1[nH]nc(Sc2ncc([N+](=O)[O-])s2)n1-c1ccc2c(c1)OCCO2 at 1 µM
L-779450: Oc1cc(-c2nc(-c3ccccc3)[nH]c2-c2ccncc2)ccc1Cl at 1 µM
AS-252424: O=C1NC(=O)/C(=C/c2ccc(-c3ccc(F)cc3O)o2)S1 at 5 µM
CHIR-265: Cn1c(Nc2ccc(C(F)(F)F)cc2)nc2cc(Oc3ccnc(-c4ncc(C(F)(F)F)[nH]4)c3)ccc21 at 0.4 µM
VX-702: NC(=O)c1ccc(N(C(N)=O)c2c(F)cccc2F)nc1-c1ccc(F)cc1F at 2 µM
vismodegib: CS(=O)(=O)c1ccc(C(=O)Nc2ccc(Cl)c(-c3ccccn3)c2)c(Cl)c1 at 5 µM
FH535: Cc1cc([N+](=O)[O-])ccc1NS(=O)(=O)c1cc(Cl)ccc1Cl at 5 µM
GW0742: Cc1cc(SCc2sc(-c3ccc(C(F)(F)F)c(F)c3)nc2C)ccc1OCC(=O)O at 10 µM
MK-1775: C=CCn1c(=O)c2cnc(Nc3ccc(N4CCN(C)CC4)cc3)nc2n1-c1cccc(C(C)(C)O)n1 at 0.1 µM
vincristine: CC[C@]1(O)C[C@H]2CN(CCc3c([nH]c4ccccc34)[C@@](C(=O)OC)(c3cc4c(cc3OC)N(C=O)[C@H]3[C@@](O)(C(=O)OC)[C@H](OC(C)=O)[C@]5(CC)C=CCN6CC[C@]43[C@@H]65)C2)C1 at 0.0005 µM
BMS-536924: Cc1cc(N2CCOCC2)cc2[nH]c(-c3c(NC[C@@H](O)c4cccc(Cl)c4)cc[nH]c3=O)nc12 at 1 µM
tipifarnib: Cn1cncc1[C@@](N)(c1ccc(Cl)cc1)c1ccc2c(c1)c(-c1cccc(Cl)c1)cc(=O)n2C at 0.05 µM
GW441756: Cn1cc(/C=C2\C(=O)Nc3cccnc32)c2ccccc21 at 2 µM
embelin: CCCCCCCCCCCC1=C(O)C(=O)C=C(O)C1=O at 6 µM

Second drug	G-361	SK-MEL-2	SK-MEL-5	WM3619	IST-MEL1	WM115	UACC-257	MEL-HO
BMS-536924	121	33.6	61.3	97.4	86.5	97.9	16.4	90.5
ruxolitinib	181	117	139	95.4	249	51.0	62.2	104
L-779450	39.6	472	165	134	64.6	138	38.0	117
FH535	640	98.2	163	122	409	58.0	339	172
indole-3-carbinol	71.0	75.5	107	118	135	135	62.2	172
vismodegib	57.8	81.5	47.5	83.6	36.8	42.5	96.6	390
AS-252424	105	109	115	150	55.9	119	24.2	106
CHIR-265	489	227	1630	235	144	1030	104	64.2
SNS-314	94.7	76.6	267	129	97.9	92.1	56.8	58.4
embelin	88.2	132	131	103	76.6	227	69.5	291
MK-1775	65.1	144	153	283	267	146	46.9	106
GW0742	70.3	106	120	96.3	56.6	32.6	99.8	108
vincristine	1430	1550	1050	312	94.3	224	175	82.1
docetaxel	890	1110	214	194	131	167	40.5	358
PD173074	29.8	86.5	231	97.1	58.9	104	42.1	90.5
fingolimod	19100	6570	126	5770	270	1600	224	835
tipifarnib	107	251	113	120	244	136	20.6	92.9
etoposide	197	162	133	147	112	140	61.0	75.5
GSK650394	209	207	171	137	40.5	132	58.3	29.1
temozolomide	108	92.9	90.7	133	71.5	61.0	23.9	48.0
bexarotene	90.0	61.7	163	81.1	119	56.5	86.0	86.4
NVP-TAE684	94.7	263	114	101	63.0	79.2	145	22.4
decitabine	402	158	240	134	149	69.5	19.2	46.6
VX-702	257	-	124	109	66.0	109	53.1	80.7
nilotinib	112	99.6	147	87.5	36.6	55.8	92.1	152
STA-4783	401	32.0	139	704	346	109	63.0	59.8
vatalanib	133	105	116	188	104	125	84.2	131
crizotinib	116	170	81.4	112	61.4	83.8	132	52.2
GW441756	53.6	25.4	141	111	92.3	284	20.4	93.6
tamatinib	115	120	177	143	75.0	28.4	74.3	131
BI-78D3	26.9	86.6	43.6	203	127	116	46.3	65.6

For reference, 3 entries once more:

Second drug	G-361	SK-MEL-2	SK-MEL-5	WM3619	IST-MEL1	WM115	UACC-257	MEL-HO
bexarotene	90.0	61.7	163	81.1	119	56.5	86.0	86.4
CHIR-265	489	227	1630	235	144	1030	104	64.2
indole-3-carbinol	71.0	75.5	107	118	135	135	62.2	172

From a melanoma drug combination screen (doi:10.1371/journal.pone.0140310); values rounded.